From PubChem BioAssay AID504467 (National Center for Advancing Translational Sciences (NCATS), 2011)
The whole screen tested about 330,000 compounds, of which about 7,700 (2.3%) were called active. Inconclusive means that the source gave no clear call. Such entries were picked first, then a sample of the others. The call rests on the fitted dose curve; in most records, active means well fitted inhibition curve with a large enough effect; inconclusive means small, poorly fitted or top-dose-only effect, or effect the other way; inactive means flat fitted curve, though single readings scatter. Where the call is inconclusive, the potency comes from a doubtful curve fit.

assay: qHTS screen for small molecules that inhibit ELG1-dependent DNA repair in human embryonic kidney (HEK293T) cells expressing luciferase-tagged ELG1; details: HEK293T ELG1-luciferase reporter, luminescence, 16 h, DNA damage induced by 5-fluorouridine; activity change, negative = inhibition: at 46.1 µM (top of the series); further: nearly all actives have a fitted effect of over 55% in size
Method in brief: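 Luminescence from the luciferase reporter, measured 30 min after ONE-Glo reagent at room temperature, was the read-out. Beforehand, 2,000 cells per well were exposed for 16 hr at 37 °C to 5-fluorouridine together with compound or vehicle.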
On the % scale 0 is the no-effect control and ±100 the full control effect; potency means the concentration at half of the fitted maximal effect.

Compound	Potency	activity change, negative = inhibition
Nc1c(C(=O)Nc2ccc3c(c2)OCCO3)nnn1Cc1ccccc1Cl	inconclusive: 8.2 µM [activator, partial curve]	
COC(=O)c1ccc(NC(=O)CCS(=O)(=O)c2ccc(Br)cc2)cc1	inactive	
CC(=O)c1cc2c(cc1N/C(=N/S(=O)(=O)c1ccc(C)cc1)c1ccccc1)OCO2	inconclusive: 29.1 µM [inhibitor, single point]	
CCN1CCN(C(=S)c2ccc(Cl)c(Cl)c2)CC1	inactive	
CC(OC(=O)c1ccc2c(=O)n3c(nc2c1)CCCCC3)C(=O)Nc1ccc(F)cc1Cl (configuration not stated)	inconclusive: 20.6 µM [activator, partial curve, poor fit]	
Cc1cc(C)c(OCC(=O)NCCCn2nc(C)cc2C)c(C)c1	inactive	
COCCOC(=O)C1=C(C)NC(=O)NC1c1cccc2ccccc12 (configuration not stated)	inactive	
COC(=O)c1ccc2c(c1)C(=O)/C(=C/c1ccc(C)cc1)O2	inconclusive: 13 µM [activator, partial curve]	
CNC(=S)N/N=C/c1ccc(-c2cc([N+](=O)[O-])ccc2Cl)o1	inconclusive: 25.9 µM [activator, single point]	
O=C(NNC(=O)C(c1ccccc1)c1ccccc1)c1ccccn1	inactive	
CCCCc1nc2cc(C(=O)N3CCC[C@H]3CO)ccc2o1	inconclusive: 14.6 µM [activator, partial curve]	
Cc1ccc(C(C)C)c(OCC(=O)NC(=S)Nc2ccccc2N2CCOCC2)c1	inactive	
COc1ccc(N2C(=O)C(Cl)=C(Nc3c(C)n(C)n(-c4ccccc4)c3=O)C2=O)cc1	inactive	
CCOCc1nnc(NC(=O)COc2ccc3c(c2)OCO3)s1	inactive	
O=C(NCCOc1cccc(Oc2ccccc2)c1)c1cc(-n2cnnc2)ccc1Cl	inconclusive: 18.4 µM [inhibitor, single point]	
CS(=O)(=O)c1ccc(Sc2nc3ccccc3[nH]2)c([N+](=O)[O-])c1	inactive	
CCN(CC(=O)Nc1ccc(NC(C)=O)cc1)C(=O)/C=C/c1c(C)nn(-c2ccc(F)cc2)c1C	active: 8.2 µM	
NC(=O)c1cccc(-c2noc(-c3ccccc3F)n2)c1	inconclusive: 0.58 µM [activator, full curve]	
O=C(c1cccc([N+](=O)[O-])c1)N1CCN(Cc2ccc3c(c2)OCO3)CC1	inconclusive: 23.1 µM [inhibitor, partial curve]	
O=C(O)c1cc(-c2ccccc2)n[nH]1	inconclusive: 29.1 µM [activator, single point]	
C#Cc1ccc([C@@H]2C=C(C(=O)Nc3ccccc3)O[C@H](OCC)[C@H]2CCCO)cc1	inconclusive: 29.1 µM [inhibitor, single point]	
Nc1cc(C(=O)c2cccs2)ccc1Cl	inconclusive: 18.4 µM [activator, partial curve]	
COc1cc2cnc(Cl)nc2cc1OC	inactive	
O=[N+]([O-])c1ccc(Cl)c2c1C1C=CCC1C(c1ccccn1)N2 (configuration not stated)	inactive	

Compound	Potency	activity change, negative = inhibition
COCc1cc(=O)n2c([nH]c3ccccc32)c1C#N	inconclusive: 16.4 µM [activator, partial curve]	
COc1cccc(CNC(=O)C2CCCN(c3nn4c(=O)cc(C)nc4s3)C2)c1 (configuration not stated)		inconclusive: 128% [activator]
CCOC(=O)N1CCN(S(=O)(=O)c2ccc(C(=O)NNc3nc4c(C)cc(C)cc4s3)cc2)CC1	inconclusive: 4.61 µM [inhibitor, single point]	
CCOC(=O)C1CCCN(S(=O)(=O)c2ccc(F)c(C(=O)Nc3ccc(F)c(F)c3)c2)C1 (configuration not stated)	inconclusive: 18.4 µM [inhibitor, partial curve]	
CSCC[C@H](NC(=O)[C@@H]1Cc2ccccc2CN1)C(=O)Nc1cccc(C)c1	inconclusive: 29.1 µM [activator, single point]	
Cc1cccc(N2CC(C(=O)Nc3ccccc3N3CCOCC3)CC2=O)c1C (configuration not stated)	inactive	
CCCn1c(=S)[nH]c2cc(C(=O)NCC3CCCO3)ccc2c1=O (configuration not stated)	inconclusive: 18.4 µM [inhibitor, partial curve]	
Cc1cccc(C(=O)O/N=C2\CCS(=O)(=O)c3sccc32)c1	inactive	
Cc1cc(N2CCN(c3ccccc3)CC2)n2cc(-c3ccccc3)nc2n1	inconclusive: 29.1 µM [inhibitor, single point]	
COCCn1c(Cc2ccccc2)nnc1SC(C)C(=O)NC1CC1 (configuration not stated)	inactive	
O=C(COc1cccnc1[N+](=O)[O-])Nc1ccc(Cl)cc1F	inconclusive: 18.3 µM [activator, partial curve]	
CCc1ccc(-c2nc(CSCC(=O)N3CCN(c4ncccn4)CC3)c(C)o2)cc1	active: 14.6 µM	
Cc1cccc(NS(=O)(=O)c2cc3c4c(c2)CC(=O)N4CCC3)c1C	inconclusive: 20.6 µM [inhibitor, partial curve, poor fit]	
COc1cc(OC)cc(-c2c(-c3ccc(F)cc3)c3cc(-c4ccc(SC)cc4)ccc3n2C)c1	inconclusive: 16.4 µM [activator, single point]	
Cc1cc(C)cc(C(=O)N2CCN(Cc3ccc4c(c3)OCO4)CC2)c1	inactive	
Cc1cc(S(=O)(=O)N2CCCC(N(C)CCc3ccccn3)C2)c(C)cc1Cl (configuration not stated)	inconclusive: 29.1 µM [inhibitor, single point]	
CSc1ccc(C(=O)/C=C/c2ccc(N)cc2)cc1	inconclusive: 8.2 µM [activator, partial curve]	
COc1ccc2ccccc2c1/C=N/NC(=O)c1nnn(-c2nonc2N)c1C(C)C	inconclusive: 18.3 µM [inhibitor, partial curve, poor fit]	
O=C1CC(NCc2cccs2)C(=O)N1c1ccc(Cl)cc1 (configuration not stated)	inconclusive: 8.2 µM [activator, partial curve, poor fit]	
CCOC(=O)Cn1c(=O)c2c(nc(Br)n2Cc2ccccc2)n(C)c1=O	inconclusive: 32.6 µM [inhibitor, partial curve, poor fit]	
Cc1cccc(OCc2ccc(C(=O)Nc3cc(C)on3)o2)c1	inconclusive: 16.4 µM [activator, partial curve, poor fit]	
O=C(NCc1ccccn1)c1cn(-c2ccccc2)nc1-c1ccc(Cl)cc1	inactive	
Cc1cccc(Cn2c(C(C)(C)C)cc3cccnc32)c1	inactive	
COC(CNC(=O)c1cn(C)c2ccc(S(=O)(=O)N3CCOCC3)cc2c1=O)OC	inactive	

Compound	Potency	activity change, negative = inhibition
CC(=O)c1c(CSc2ccccc2)oc2ccc(O)c(CN(C)C)c12	inactive	
CCc1cccc(CC)c1NC(=O)CN1CCc2cc(OC)c(OC)cc2C1	inconclusive: 11.6 µM [inhibitor, partial curve, poor fit]	
CS(=O)(=O)N1CC(C(=O)O)Oc2ccc(CC(=O)O)cc21 (configuration not stated)	inactive	
CCCOc1ccc(CCC(=O)N/N=C/c2ccc([N+](=O)[O-])o2)cc1	inconclusive: 7.3 µM [inhibitor, partial curve, poor fit]	
O=C(CN1CCCCC1)NC(=O)NC1CCCCC1	inconclusive: 20.6 µM [activator, partial curve]	
CCNc1nc(NC(C)C)nc(ON=C(C)C)n1	inactive	
CCCNC(=O)c1cccc(Cn2nc(C)c(Br)c2C)c1	inconclusive: 23.1 µM [inhibitor, partial curve]	
COc1ccc(N(C)S(=O)(=O)c2cccc(C(=O)NC3CCCCCC3)c2)cc1	inconclusive: 25.9 µM [inhibitor, partial curve, poor fit]	
C=CCNCc1ccc(C(=O)NCCCCCCC)cc1[N+](=O)[O-]	inactive	
CCn1c(COc2cccc(C)c2)nnc1SCC(=O)CC(=O)Nc1ccccc1OC	inactive	
CN1CCN(CCCNC(=O)CCCOc2cc(=O)n(C)c3ccccc23)CC1	inconclusive: 29.1 µM [activator, single point]	
O=C(c1cccn2c(=O)c3cc(Br)ccc3nc12)N1CCN(c2ccccn2)CC1	inactive	
COCCNC(=O)CSc1nnc(-c2ccccc2)c(-c2ccccc2)n1	inactive	
COc1ccc(NS(=O)(=O)c2ccc(OC)c3ccccc23)cn1	inconclusive: 29.1 µM [inhibitor, single point]	
O=C(CCl)Nc1cccc(-c2cnc3ccccc3n2)c1	active: 9.2 µM	
Nn1c(SCc2ccc([N+](=O)[O-])cc2)nc2ccccc2c1=O	inactive	
Cc1sc2ncnc(SCC(=O)Nc3cccc(S(N)(=O)=O)c3)c2c1C	inconclusive: 23.1 µM [inhibitor, partial curve, poor fit]	
CC(/C=C(\NC(=O)c1ccccc1)C(=O)N=Nc1c(O)[nH]c2ccc(C)cc12)=C\c1ccccc1	inconclusive: 10.3 µM [inhibitor, partial curve, poor fit]	
C=CCn1c(C)cc(C(=O)CSc2nnc(-c3cccc(S(=O)(=O)N(CC)CC)c3)o2)c1C	active: 16.4 µM	
COc1ccc(N2CCN(C(=O)c3cccc(F)c3)CC2)c([N+](=O)[O-])c1	inactive	
Cc1cc2cc(CNC(=O)c3cccs3)ccc2n1C	inconclusive: 29.1 µM [inhibitor, partial curve, poor fit]	
COc1cc(C2/C(=C(\O)c3ccc4c(c3)CC(C)O4)C(=O)C(=O)N2CCN2CCOCC2)cc(OC)c1OC (configuration not stated)	inactive	
COc1ccc(CC(=O)NCCS(=O)(=O)N2CCN(c3ccccc3)CC2)cc1OC	inconclusive: 10.3 µM [inhibitor, single point]	
NC(=O)CC(NC(=O)c1ccccc1)c1ccc(N2CCC(Cc3ccccc3)CC2)c([N+](=O)[O-])c1 (configuration not stated)	inconclusive: 8.2 µM [inhibitor, partial curve, poor fit]	
